Results: US8247552B2, “Analogs of dehydrophenylahistins and their therapeutic use” (Nereus Pharmaceuticals, Inc., priority 2002, dated 2012)
“And” between values parts separate entries of the source, which are not always exact repeats. Identical values can stand only once.

What was measured:
[1] = system: MES-SA (Taxol sensitive) human uterine sarcoma; assay: Cytotoxicity / growth inhibition in drug-sensitive uterine sarcoma cells; type: cell-based; conditions: Table 13; ratio of IC50 with CsA pretreat to No CsA in MES-SA
[2] = system: MES-SA/Dx5 (Taxol resistant) human uterine sarcoma; assay: Cytotoxicity / growth inhibition in multidrug resistant uterine sarcoma cells; type: cell-based; conditions: Table 13; ratio of IC50 resistant to MES-SA sensitive
Protocol: 1) Human Uterine Sarcoma Tumor Cell Line Pair: MES-SA (Taxol Sensitive) and MES-SA/Dx5 (Taxol Resistant).
HL-60 and HL-60/MX2 cells were both seeded at 5×10^4 cells/well in 90 μl complete media into 96 well plates on the day of compound addition. […] Ten μl volumes of the 10× serial dilutions were added to the test wells in triplicate and the plates returned to the incubator for 48 hours.
Resazurin dye in medium without cells was used to determine the background, which was subtracted from the data for all experimental wells.
The multidrug resistant MES-SA/Dx5 tumor cell line was derived from the human uterine sarcoma MES-SA tumor cell line and expresses elevated P-Glycoprotein (P-gp), an ATP dependent efflux pump. […] Paclitaxel, a known substrate of the P-gp pump was included as a control.

Row | Compound | MES-SA Sensitive, CsA Pretreat, Ratio No CsA [1] | MES-SA/DX5 Resistant, No CsA, Ratio MES-SA [2]
1 | CC(=O)O[C@H]1C(=O)[C@@]2(C)[C@H]([C@H](OC(=O)c3ccccc3)[C@]3(O)C[C@H](OC(=O)[C@H](O)[C@@H](NC(=O)c4ccccc4)c4ccccc4)C(C)=C1C3(C)C)[C@]1(OC(C)=O)CO[C@@H]1C[C@@H]2O [Taxol] | 0.6 and 0.4 | 
2 | CC(C)(C)c1[nH]cnc1/C=C1\NC(=O)[C@H](Cc2ccccc2)NC1=O [t-butyl-phenylahistin] |  | 5.7 and 4.3
